Reference: publication PMC10042540, “Targeting oncogenic KRasG13C with nucleotide-based covalent inhibitors” (eLife, 2023)

Test system: KRas
Assay: Electroporation into HeLa cells, western blot quantification
Assay type: cell-based, human
Settings: for KRas mean fold change: mean of cell lysates

Row | Substance | KRas fold change (50 µg, Cell lysate 1) | KRas fold change (50 µg, Cell lysate 2) | KRas fold change (50 µg, Cell lysate 3) | KRas mean fold change (50 µg) | KRas fold change (100 µg, Cell lysate 1) | KRas fold change (100 µg, Cell lysate 2) | KRas fold change (100 µg, Cell lysate 3) | KRas mean fold change (100 µg) | KRas fold change (200 µg, Cell lysate 1) | KRas fold change (200 µg, Cell lysate 2) | KRas fold change (200 µg, Cell lysate 3) | KRas mean fold change (200 µg) | KRas fold change (300 µg, Cell lysate 1) | KRas fold change (300 µg, Cell lysate 2) | KRas fold change (300 µg, Cell lysate 3) | KRas mean fold change (300 µg)
1 | KRasG13C-edaGDP: KRasG13C covalently locked with edaGDP at Cys13 | 3.66 | 7.00 | 3.42 | 4.69 | 7.36 | 10.20 | 10.00 | 9.19 | 15.00 | 18.10 | 17.60 | 16.90 | 14.00 | 33.80 | 27.10 | 24.97
2 | KRasG13C-edaGppCp: KRasG13C covalently modified with edaGppCp | 2.70 | 3.63 | – | 3.17 | 22.50 | 7.10 | – | 14.80 | 18.20 | 8.84 | – | 13.52 | 32.00 | 13.00 | – | 22.50
3 | KRasG13C: recombinant oncogenic KRasG13C mutant protein, GDP-bound | 10.10 | 12.20 | 2.79 | 8.36 | 16.60 | 17.60 | 4.10 | 12.77 | 37.90 | 21.60 | 13.40 | 24.30 | 53.60 | 30.50 | 20.80 | 34.97
4 | KRasG13C:acetyledaGDP: KRasG13C non-covalently loaded with acetyledaGDP, control | 1.86 | 3.06 | 2.70 | 2.54 | 3.77 | 6.87 | 3.59 | 4.74 | 13.20 | 34.60 | 13.20 | 20.33 | 25.20 | 50.90 | 19.70 | 31.93
